These are yes or no findings as the source states them, for the method shown. In cells and extracts the contact can be indirect. Where a sequence is shown, tags or fusion partners need not be part of it.
Molecular target: T1, ZNF446-V5 (UniProt Q9NWS9)
T1 sequence: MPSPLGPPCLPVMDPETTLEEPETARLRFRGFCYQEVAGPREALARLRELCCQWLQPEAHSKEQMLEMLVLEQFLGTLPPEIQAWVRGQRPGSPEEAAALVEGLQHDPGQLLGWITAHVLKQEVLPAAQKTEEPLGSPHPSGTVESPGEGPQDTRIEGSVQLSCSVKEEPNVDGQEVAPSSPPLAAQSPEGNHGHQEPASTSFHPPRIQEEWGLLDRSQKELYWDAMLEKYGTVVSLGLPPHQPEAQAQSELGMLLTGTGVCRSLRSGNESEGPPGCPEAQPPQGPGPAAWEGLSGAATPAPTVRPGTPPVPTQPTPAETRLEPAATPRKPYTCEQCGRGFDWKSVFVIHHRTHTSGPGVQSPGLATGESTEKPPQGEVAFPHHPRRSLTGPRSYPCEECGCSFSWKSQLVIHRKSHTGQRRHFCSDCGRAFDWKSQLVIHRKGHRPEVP
Experiment: co-IP; co-expression in HEK293T for 48 h; lysis in non-denaturing buffer (50 mM HEPES pH 7.4, 150 mM NaCl, 1% Triton X-100, 0.5% sodium deoxycholate); immunoprecipitation with HA or V5 antibody at 4°C; three washes in the buffer and one with 500 mM NaCl; immunoblot

Amino acid sequences for entries named in this document (tags omitted). A change or cut given only in a name is not applied to a line headed by its entry.
UniProt P49910: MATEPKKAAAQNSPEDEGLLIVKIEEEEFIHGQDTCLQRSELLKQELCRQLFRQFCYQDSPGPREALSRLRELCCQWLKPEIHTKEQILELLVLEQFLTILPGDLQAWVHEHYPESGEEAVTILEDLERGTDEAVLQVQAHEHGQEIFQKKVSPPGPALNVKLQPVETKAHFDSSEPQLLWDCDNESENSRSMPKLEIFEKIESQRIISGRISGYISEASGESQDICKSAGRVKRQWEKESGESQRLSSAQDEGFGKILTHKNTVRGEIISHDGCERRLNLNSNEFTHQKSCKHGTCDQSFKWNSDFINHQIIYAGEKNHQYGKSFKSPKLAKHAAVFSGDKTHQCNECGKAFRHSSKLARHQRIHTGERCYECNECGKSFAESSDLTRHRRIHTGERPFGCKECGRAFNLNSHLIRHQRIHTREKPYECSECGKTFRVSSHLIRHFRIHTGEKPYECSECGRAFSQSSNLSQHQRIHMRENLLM

binding: no binding
Substance: ZNF165-myc with the SCAN domain deleted (from UniProt P49910)

Source: article PMC7302877
